In patent publication US20250381249A1, “COMBINATION TREATMENT FOR RESISTANT HYPERTENSION” (Mayo Foundation for Medical Education and Research, priority 2018, published 2025):

Tests used:
Assay type in all cases: in vivo, rat
[1] = Acute study in SHR, plasma ANP radioimmunoassay as assessment of MANP; details: mean±SEM
Description: Acute Study Protocol in SHR: The cardiorenal and neurohumoral actions of MANP, Fs, or their combination were investigated in the genetic model of hypertension in male SHR (n=6 in each group). Rats were anesthetized in an induction chamber with inhaled Isoflurane 2.5%. During this brief state of anesthesia, the rats were administered IP Inactin 100 mg/kg to maintain anesthesia. An oxygen mask was used until the end of the experiment. The carotid artery was cannulated for arterial pressure measurements and the right jugular vein was cannulated for infusions. Pressures were recorded and analyzed digitally (Sonometrics, London, Ontario, Canada). Via a small incision in the lower abdominal wall, the bladder was cannulated for urine sampling.
Immediately after preparation, a 30-minute equilibration period was started with intravenous inulin infusion. […] After baseline measurements, rats were randomly assigned to ten groups: • Group 1—treated with MANP100; • Group 2—treated with MANP300; • Group 3—treated with MANP600; • Group 4—treated with Fs1; • Group 5—treated with Fs5; • Group 6—treated with Fs10; • Group 7—treated with MANP300+Fs5; • Group 8—treated with MANP300+Fs10; • Group 9—treated with MANP600+Fs10; and • Group 10—treated with inulin, normal saline, or inulin and normal saline. For Groups 1-3, after a 15-minute lead-in of MANP infusion, MANP was continuously infused for a total of 60 minutes. Animals in Groups 4-6 received a single intravenous (IV) bolus administration of Fs. […]
Neurohormonal and Electrolyte Analysis: Plasma ANP was measured by radioimmunoassay (Phoenix Pharmaceuticals) as an assessment of MANP, as the ANP RIA fully detects MANP (Burnett et al. (1986) Science 231(4742):1145-1147). Plasma and urinary cGMP (Enzo Life Sciences) and aldosterone (DRG International, Springfield, NJ) were determined by ELISA. Inulin concentrations were measured using the anthrone method, as described elsewhere (Fuhr et al. (1955) Klin. Wochenschr 33:729-730). GFR was calculated by inulin clearance. Electrolytes were measured by flame photometry (IL943, Instrumentation Laboratory, UK). […]

SHR = assay: Acute study in SHR, neurohumoral analysis (plasma and urinary cGMP, aldosterone)
Description: Acute Study Protocol in SHR: The cardiorenal and neurohumoral actions of MANP, Fs, or their combination were investigated in the genetic model of hypertension in male SHR (n=6 in each group). Rats were anesthetized in an induction chamber with inhaled Isoflurane 2.5%. During this brief state of anesthesia, the rats were administered IP Inactin 100 mg/kg to maintain anesthesia. An oxygen mask was used until the end of the experiment. The carotid artery was cannulated for arterial pressure measurements and the right jugular vein was cannulated for infusions. Pressures were recorded and analyzed digitally (Sonometrics, London, Ontario, Canada). […] Neurohormonal and Electrolyte Analysis: Plasma ANP was measured by radioimmunoassay (Phoenix Pharmaceuticals) as an assessment of MANP, as the ANP RIA fully detects MANP (Burnett et al. (1986) Science 231(4742):1145-1147). Plasma and urinary cGMP (Enzo Life Sciences) and aldosterone (DRG International, Springfield, NJ) were determined by ELISA. Inulin concentrations were measured using the anthrone method, as described elsewhere (Fuhr et al. (1955) Klin. Wochenschr 33:729-730). GFR was calculated by inulin clearance. Electrolytes were measured by flame photometry (IL943, Instrumentation Laboratory, UK). […] Statistical Analysis: Values are expressed as mean±standard error of mean (SEM). […]

[2] = system: spontaneously hypertensive rats (SHR); assay: Individual and combined effects of MANP and Fs on BP and aldosterone in spontaneously hypertensive rats (Example 1)
Description: Studies were conducted to examine the individual and combined effects of MANP (SEQ ID NO:3) and Fs on BP and aldosterone stimulation in spontaneously hypertensive rats (SHR), the most studied and widely used genetic model of human essential hypertension (Lerman et al. (2019) Hypertension 73(6):e87-e120). SHR (n=32) were randomized into ten groups: • Group 1—treated with vehicle saline (Veh); • Group 2—treated with 1 mg/kg Fs alone (Fs1); • Group 3—treated with 5 mg/kg Fs alone (Fs5); • Group 4—treated with 10 mg/kg Fs alone (Fs10); • Group 5—treated with 100 pmol/kg/min MANP alone (MANP100); • Group 6—treated with 300 pmol/kg/min MANP alone (MANP300); • Group 7—treated with 600 pmol/kg/min MANP alone (MANP600); • Group 8—treated with Fs5+MANP300; • Group 9—treated with Fs10+MANP300; and • Group 10—treated with Fs10+MANP600. Fs was given as a single bolus that, in groups 8, 9, and 10, was followed by a 60-minute infusion of MANP.

## NS(=O)(=O)c1cc(C(=O)O)c(NCc2ccco2)cc1Cl [Fs, furosemide]
[1]; 60 min after Fs 1 mg/kg IV bolus
  Plasma ANP: 14 ± 1 pg/mL
[1]; 60 min after Fs 5 mg/kg IV bolus
  Plasma ANP: 16 ± 3 pg/mL
[1]; 60 min after Fs 10 mg/kg IV bolus
  Plasma ANP: 19 ± 3 pg/mL
SHR; Fs bolus groups, baseline, 30 and 60 minutes
  Plasma cGMP: did not change
SHR; Fs groups, 60 minutes
  Urinary cGMP excretion compared to vehicle (control): no significant increase
[2]; Fs, MANP and Fs+MANP groups, p<0.05
  sodium excretion: enhanced
[2]; low and high dose Fs, 60 minutes
  Plasma aldosterone: tended to increase
[2]; over 60 minutes, all dose groups
  Plasma cGMP: not changed
